# Experiment: general procedure: Fmoc solid-phase peptide synthesis; HATU/DIPEA
# Settings: late stage modification step
Substance,step yield (HCl salt),step yield
(TBK1-Diglycolate-0PEG)-(KRVHF-NMe),19% yield,–
KRVHF-NMe (protected),–,35% yield

# Source: US20200268897 (published 2020)
